Measurements: paper PMC11947133
Read-outs that look alike come from different tables or passages of the source. Results are given in words; binding and its absence hold for the method and conditions named. In cells and extracts the contact can be indirect. Some results given as binding are weak or reduced against the parent protein; the word gives no strength.

Protein sequences, listed by entry. Tags and fused reporters are not part of them. Residues count along the entry.
UniProt P0DTD2: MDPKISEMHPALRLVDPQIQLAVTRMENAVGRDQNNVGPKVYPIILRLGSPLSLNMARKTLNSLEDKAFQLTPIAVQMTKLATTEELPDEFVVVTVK
UniProt Q9BXK5: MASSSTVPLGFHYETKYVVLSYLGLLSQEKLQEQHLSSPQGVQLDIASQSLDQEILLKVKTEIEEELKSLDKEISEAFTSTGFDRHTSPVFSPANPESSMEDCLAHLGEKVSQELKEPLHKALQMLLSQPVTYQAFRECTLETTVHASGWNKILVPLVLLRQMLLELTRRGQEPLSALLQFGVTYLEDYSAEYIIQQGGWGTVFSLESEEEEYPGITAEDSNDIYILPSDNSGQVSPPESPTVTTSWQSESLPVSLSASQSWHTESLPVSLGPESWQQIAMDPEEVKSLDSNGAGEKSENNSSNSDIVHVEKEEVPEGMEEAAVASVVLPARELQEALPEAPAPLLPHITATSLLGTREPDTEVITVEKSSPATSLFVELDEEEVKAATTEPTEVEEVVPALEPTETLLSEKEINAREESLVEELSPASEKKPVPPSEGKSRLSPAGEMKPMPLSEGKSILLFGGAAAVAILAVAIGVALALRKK
UniProt O95169, residues 29-186: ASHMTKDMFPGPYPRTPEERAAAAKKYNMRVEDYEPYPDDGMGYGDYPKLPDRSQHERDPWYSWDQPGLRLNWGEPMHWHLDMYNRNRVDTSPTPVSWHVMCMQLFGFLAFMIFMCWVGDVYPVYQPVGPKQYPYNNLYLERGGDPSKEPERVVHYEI
UniProt Q9NWH2: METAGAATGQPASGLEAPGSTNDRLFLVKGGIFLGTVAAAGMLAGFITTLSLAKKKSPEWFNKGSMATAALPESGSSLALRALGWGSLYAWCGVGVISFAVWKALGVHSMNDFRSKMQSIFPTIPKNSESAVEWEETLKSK

B1: WIPI1 (protein, UniProt Q5MNZ9 1-446)
chain: MEAEAADAPPGGVESALSCFSFNQDCTSLATGTKAGYKLFSLSSVEQLDQVHGSNEIPDVYIVERLFSSSLVVVVSHTKPRQMNVYHFKKGTEICNYSYSSNILSIRLNRQRLLVCLEESIYIHNIKDMKLLKTLLDIPANPTGLCALSINHSNSYLAYPGSLTSGEIVLYDGNSLKTVCTIAAHEGTLAAITFNASGSKLASASEKGTVIRVFSVPDGQKLYEFRRGMKRYVTISSLVFSMDSQFLCASSNTETVHIFKLEQVTNSRPEEPSTWSGYMGKMFMAATNYLPTQVSDMMHQDRAFATARLNFSGQRNICTLSTIQKLPRLLVASSSGHLYMYNLDPQDGGECVLIKTHSLLGSGTTEENKENDLRPSLPQSYAATVARPSASSASTVPGYSEDGGALRGEVIPEHEFATGPVCLDDENEFPPIILCRGNQKGKTKQS
B2: human deubiquitinase USP13 (enzyme, UniProt Q92995 1-863)
chain: MQRRGALFGMPGGSGGRKMAAGDIGELLVPHMPTIRVPRSGDRVYKNECAFSYDSPNSEGGLYVCMNTFLAFGREHVERHFRKTGQSVYMHLKRHVREKVRGASGGALPKRRNSKIFLDLDTDDDLNSDDYEYEDEAKLVIFPDHYEIALPNIEELPALVTIACDAVLSSKSPYRKQDPDTWENELPVSKYANNLTQLDNGVRIPPSGWKCARCDLRENLWLNLTDGSVLCGKWFFDSSGGNGHALEHYRDMGYPLAVKLGTITPDGADVYSFQEEEPVLDPHLAKHLAHFGIDMLHMHGTENGLQDNDIKLRVSEWEVIQESGTKLKPMYGPGYTGLKNLGNSCYLSSVMQAIFSIPEFQRAYVGNLPRIFDYSPLDPTQDFNTQMTKLGHGLLSGQYSKPPVKSELIEQVMKEEHKPQQNGISPRMFKAFVSKSHPEFSSNRQQDAQEFFLHLVNLVERNRIGSENPSDVFRFLVEERIQCCQTRKVRYTERVDYLMQLPVAMEAATNKDELIAYELTRREAEANRRPLPELVRAKIPFSACLQAFSEPENVDDFWSSALQAKSAGVKTSRFASFPEYLVVQIKKFTFGLDWVPKKFDVSIDMPDLLDINHLRARGLQPGEEELPDISPPIVIPDDSKDRLMNQLIDPSDIDESSVMQLAEMGFPLEACRKAVYFTGNMGAEVAFNWIIVHMEEPDFAEPLTMPGYGGAASAGASVFGASGLDNQPPEEIVAIITSMGFQRNQAIQALRATNNNLERALDWIFSHPEFEEDSDFVIEMENNANANIISEAKPEGPRVKDGSGTYELFAFISHMGTSTMSGHYICHIKKEGRWVIYNDHKVCASERPPKDLGYMYFYRRIPS
B3: MFF (protein, UniProt Q9GZY8 1-342)
chain: MSKGTSSDTSLGRVSRAAFPSPTAAEMAEISRIQYEMEYTEGISQRMRVPEKLKVAPPNADLEQGFQEGVPNASVIMQVPERIVVAGNNEDVSFSRPADLDLIQSTPFKPLALKTPPRVLTLSERPLDFLDLERPPTTPQNEEIRAVGRLKRERSMSENAVRQNGQLVRNDSLWHRSDSAPRNKISRFQAPISAPEYTVTPSPQQARVCPPHMLPEDGANLSSARGILSLIQSSTRRAYQQILDVLDENRRPVLRGGSAAATSNPHHDNVRYGISNIDTTIEGTSDDLTVVDAASLRRQIIKLNRRLQLLEEENKERAKREMVMYSITVAFWLLNSWLWFRR

Tests used:
Test in all cases: split reporter
[1] = biological target: SARS-CoV-2 ORF9b (SARS-CoV-2) (UniProt P0DTD2)
[2] = biological target: SARS-CoV-2 NSP1 (SARS-CoV-2) (UniProt P0DTD1)
[3] = biological target: SARS-CoV-2 NSP13 viral helicase (SARS-CoV-2) (UniProt P0DTD1)
[4] = biological target: SARS-CoV-2 ORF9b (SARS-CoV-2) (UniProt P0DTD2); remark: listed apart in the source

Row | Molecule | binding [1] | further results
1 | BCL2L13 (from UniProt Q9BXK5 1-485) | binds | 
2 | NDUFB8 (from UniProt O95169 29-186) | binds | 
3 | TMEM242 (from UniProt Q9NWH2 1-141) | binds | 
4 | B1 |  | binding [2]: binds
5 | B2 |  | binding [3]: binds
6 | B3 |  | binding [4]: binds
